Reference: the supplement of paper PMC8007513
This is one part of the list. Most values come without repeats; read them as rough.

tested on: Saccharomyces cerevisiae BY4743; test: growth (OD600) relative to untreated control; higher = less growth inhibition; conditions: compound concentration: 133 uM; 20 h
Method: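 NMCCC compounds (133 uM, no IPBC) tested alone against Saccharomyces cerevisiae BY4743 in YPD, 96-well plates, starting OD600 ~0.1. Growth was read as OD600 at 20 h and expressed as % of the untreated control. Single pass.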

How did the growth turn out when COC(=O)c1sccc1NS(=O)(=O)c1ccc(Cl)s1 was run?
The growth was 99.9%.

With CN(C1CCCCC1)C(=O)\C2=C\C(=N/[S](=O)(=O)N2C)C3=CC=C(F)C=C3 as the compound, how does the growth read?
Its growth is 99.2%.

For Oc1cc(C(F)(F)F)c2c(-c3ccccc3)noc2n1, which growth is on record?
Its growth is 100%.

CC(C)(C)c1ccc2oc(=O)n(C(=O)COc3ccc(F)cc3)c2c1 was tested. Which growth did it give?
Its growth is 103%.

For CCN(Cc1ccncc1)Cn1c(=O)oc2ccccc21, which growth is on record?
The growth was 88.8%.

With Cc1nn(C)c(C)c1NS(=O)(=O)c1cccc(C#N)c1 as the compound, how does the growth read?
Its growth is 104%.

With CCOC(=O)C1CCN(C(=O)c2cc(-c3cccnc3)on2)CC1 as the compound, how does the growth read?
The growth was 95.4%.

CCc1cc2c(Nc3cccc(O)c3)nc(C)nc2s1 was tested. Which growth did it give?
The growth was 98.6%.

For COc1ccccc1NC(=O)Nc1ccc2c(c1)C(=O)OC2, which growth is on record?
The growth was 93.6%.

How did the growth turn out when CCNc1sc(S(C)(=O)=O)nc1S(=O)(=O)c1ccc(Cl)cc1 was run?
The growth was 94%.

With Cc1cc(C(F)(F)F)n2ncc(-c3cccc(Br)c3)c2n1 as the compound, how does the growth read?
The growth was 88.9%.

With CC1=C(N[S](=O)(=O)C/2=C(C)/N=C\3S\C=C/N3C2=O)C(=CC=C1)C as the compound, how does the growth read?
The growth was 103%.

With CC(=O)Nc1nc(COC(=O)CNC(N)=O)cs1 as the compound, how does the growth read?
The growth was 99.4%.

For N#Cc1ccccc1S(=O)(=O)N1CCN(C(=O)COc2ccccc2C(F)(F)F)CC1, which growth is on record?
The growth was 95.8%.

With CCOC(=O)c1cc(C)n(CCCN2CCOCC2)c1C as the compound, how does the growth read?
Its growth is 98.9%.

For COc1ccc(N(CC(=O)NCC2CCCO2)S(=O)(=O)c2c(C)noc2C)cc1 (configuration not stated), which growth is on record?
The growth was 105%.

For CSc1nncc(-c2ccc(Br)cc2)n1, which growth is on record?
The growth was 81.3%.
